# Measured values from the supplement of paper PMC8728848.
# The other results are listed elsewhere or left out.
# B1: pullulanase (Streptococcus pyogenes), Q8KLP1 (protein)
# chain: MKKKVNQGSKRYQYLLKKWGIGFVIAATGTVMLGCIPSILTHQVAAKTIVGLARDEAQQGDGNAKSGDGFQSSSKEAKPVLDSSSANPASIAEHHLRMHFKTLPAGESLGSLGLWVWGDVDQPSKDWPNGAITMTKAKKDDYGYYLDVPLAAKHRQQVSYLINNKAGENLSKDQHIPLLTPKMNEVWIDENYHAHAYRPLKKGYLRINYHNQSGHYDNLAVWTFKDVKTPTTDWPNGLDLSHKGPYGAYVDVPLKEGANEIGFLILDKSKTGDAIKVQPKDYLFKELDNHTQVFVKDTDPKVYNNPYYIDQVSLKGAEQTTPNEIKAIFTTLDGLDEDAVKQNIKITDKAGKTVAIDELTLDKDKSVMTLKGDFKAQGAVYTVTFGEVSQVARQSWQLKDKLYAYDGELGATLAKDGSVDLALWSPSADSVKVVVYDKQDQTKVVGQADLTKSDKGVWRAHLTSDSVKGISDYTGYYYLYEITRGQEKVMVLDPYAKSLAAWNDATATDDIKTAKAAFIDPSKLGPTGLDFAKINNFKKREDAIIYEAHVRDFTSDKALEGKLTHPFGTFSAFVEQLDYLKDLGVTHVQLLPVLSYFYANELDKTRSTAYTSSDNNYNWGYDPQHYFALSGMYSANPNDPALRIAELKNLVNEIHKRGMGVIFDVVYNHTARTYLFEDLEPNYYHFMNADGTARESFGGGRLGTTHAMSRRILVDSITYLTREFKVDGFRFDMMGDHDAAAIEQAFKAAKAINPNTIMIGEGWRTYQGDEGKKEIAADQDWMKATNTVGVFSDDIRNTLKSGFPNEGTAAFITGGAKNLEGLFKTIKAQPSNFEADAPGDVVQYIAAHDNLTLHDVIAKSINKDPKVAEEEIHKRIRLGNTMILTAQGTAFIHSGQEYGRTKQLLNPDYKTKVSDDKVPNKATLIDAVAQYPYFIHDSYDSSDAVNHFDWAKATDSIAHPISNQTKAYTQGLIALRRSTDAFTKATKAEVDRDVTLITQAGQDGIQQEDLIMGYQTVASNGDRYAVFVNADNKTRKVVLPQAYRYLLGAQVLADAEQVGVTAIAKPKGVQFTKEGLTIDGLTALVLKVSSKTANPSQQKSQTDNHQTKTPDGSKDLDKSLMTRPKRAKTNQKLPKTGEAPSKGLLAAGVALLLLAISLLMKRQKD
# Experiments:
# Assay in all cases: glycan array binding signal (z-score within array); higher = stronger binding
# Settings in all cases: glycan notation: IUPAC condensed, linker removed
# Fuc(a1-2)Gal = target: Fuc(a1-2)Gal
# Summary of the method: (§1)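 Glycan array binding is given as a within-array Z-score, which can be read as non-binding when negative. The arrays, 3228 of them, came from the Consortium for Functional Glycomics database and were retained only where the protein sequence was available. Z-scores were averaged across arrays of the same protein sequence at different concentrations or buffers and across linkers.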
# Fuc(a1-2)Gal(b1-3)GalNAc = target: Fuc(a1-2)Gal(b1-3)GalNAc
# Summary of the method: as §1
# [1] = target: Fuc(a1-2)Gal(b1-3)GalNAc(a1-3)[Fuc(a1-2)]Gal(b1-4)Glc
# Summary of the method: as §1
# [2] = target: Fuc(a1-2)Gal(b1-3)GalNAc(a1-3)[Fuc(a1-2)]Gal(b1-4)GlcNAc
# Summary of the method: as §1
# [3] = target: Fuc(a1-2)Gal(b1-3)GalNAc(b1-3)Gal
# Summary of the method: as §1
# [4] = target: Fuc(a1-2)Gal(b1-3)GalNAc(b1-3)Gal(a1-4)Gal(b1-4)Glc
# Summary of the method: as §1
# [5] = target: Fuc(a1-2)Gal(b1-3)GalNAc(b1-4)[Neu5Ac(a2-3)]Gal(b1-4)Glc
# Summary of the method: as §1
# Fuc(a1-2)Gal(b1-3)GlcNAc = target: Fuc(a1-2)Gal(b1-3)GlcNAc
# Summary of the method: as §1
# [6] = target: Fuc(a1-2)Gal(b1-3)GlcNAc(b1-2)Man(a1-3)[Fuc(a1-2)Gal(b1-3)GlcNAc(b1-2)Man(a1-6)]Man(b1-4)GlcNAc(b1-4)GlcNAc
# Summary of the method: as §1
# [7] = target: Fuc(a1-2)Gal(b1-3)GlcNAc(b1-2)Man(a1-3)[Fuc(a1-2)Gal(b1-3)GlcNAc(b1-2)Man(a1-6)]Man(b1-4)GlcNAc(b1-4)[Fuc(a1-6)]GlcNAc
# Summary of the method: as §1
# [8] = target: Fuc(a1-2)Gal(b1-3)GlcNAc(b1-3)Gal(b1-4)Glc
# Summary of the method: as §1
# [9] = target: Fuc(a1-2)Gal(b1-3)GlcNAc(b1-3)GalNAc
# Summary of the method: as §1
# [10] = target: Fuc(a1-2)Gal(b1-3)GlcNAc(b1-3)[Fuc(a1-3)[Gal(b1-4)]GlcNAc(b1-6)]Gal(b1-4)Glc
# Summary of the method: as §1
# [11] = target: Fuc(a1-2)Gal(b1-3)GlcNAc(b1-3)[Gal(b1-4)GlcNAc(b1-6)]Gal(b1-4)Glc
# Summary of the method: as §1
# [12] = target: Fuc(a1-2)Gal(b1-3)[Fuc(a1-4)]GlcNAc
# Summary of the method: as §1
# [13] = target: Fuc(a1-2)Gal(b1-3)[Fuc(a1-4)]GlcNAc(b1-2)Man(a1-3)[Fuc(a1-2)Gal(b1-3)[Fuc(a1-4)]GlcNAc(b1-2)Man(a1-6)]Man(b1-4)GlcNAc(b1-4)GlcNAc
# Summary of the method: as §1
# [14] = target: Fuc(a1-2)Gal(b1-3)[Fuc(a1-4)]GlcNAc(b1-3)[Fuc(a1-3)[Gal(b1-4)]GlcNAc(b1-6)]Gal(b1-4)Glc
# Summary of the method: as §1
# [15] = target: Fuc(a1-2)Gal(b1-3)[Fuc(a1-4)]GlcNAc(b1-3)[Gal(b1-4)GlcNAc(b1-6)]Gal(b1-4)Glc
# Summary of the method: as §1
# Fuc(a1-2)Gal(b1-4)Glc = target: Fuc(a1-2)Gal(b1-4)Glc
# Summary of the method: as §1
# Fuc(a1-2)Gal(b1-4)Glc6S = target: Fuc(a1-2)Gal(b1-4)Glc6S
# Summary of the method: as §1
# Fuc(a1-2)Gal(b1-4)GlcNAc = target: Fuc(a1-2)Gal(b1-4)GlcNAc
# Summary of the method: as §1
# [16] = target: Fuc(a1-2)Gal(b1-4)GlcNAc(b1-2)Man(a1-3)[Fuc(a1-2)Gal(b1-4)GlcNAc(b1-2)Man(a1-6)]Man(b1-4)GlcNAc(b1-4)GlcNAc
# Summary of the method: as §1
# [17] = target: Fuc(a1-2)Gal(b1-4)GlcNAc(b1-2)Man(a1-3)[Fuc(a1-2)Gal(b1-4)GlcNAc(b1-2)Man(a1-6)]Man(b1-4)GlcNAc(b1-4)[Fuc(a1-6)]GlcNAc
# Summary of the method: as §1
# [18] = target: Fuc(a1-2)Gal(b1-4)GlcNAc(b1-2)[Fuc(a1-2)Gal(b1-4)GlcNAc(b1-4)]Man(a1-3)[Fuc(a1-2)Gal(b1-4)GlcNAc(b1-2)Man(a1-6)]Man(b1-4)GlcNAc(b1-4)GlcNAc
# Summary of the method: as §1
# [19] = target: Fuc(a1-2)Gal(b1-4)GlcNAc(b1-3)Gal(b1-4)GlcNAc
# Summary of the method: as §1
# [20] = target: Fuc(a1-2)Gal(b1-4)GlcNAc(b1-3)Gal(b1-4)GlcNAc(b1-3)Gal(b1-4)GlcNAc
# Summary of the method: as §1
# [21] = target: Fuc(a1-2)Gal(b1-4)GlcNAc(b1-3)GalNAc
# Summary of the method: as §1
# [22] = target: Fuc(a1-2)Gal(b1-4)GlcNAc6S
# Summary of the method: as §1
# [23] = target: Fuc(a1-2)Gal(b1-4)[Fuc(a1-3)]GlcNAc
# Summary of the method: as §1
# [24] = target: Fuc(a1-2)Gal(b1-4)[Fuc(a1-3)]GlcNAc(b1-2)Man(a1-3)[Fuc(a1-2)Gal(b1-4)[Fuc(a1-3)]GlcNAc(b1-2)Man(a1-6)]Man(b1-4)GlcNAc(b1-4)GlcNAc
# Summary of the method: as §1
binder,measurement,setting,value
B1,glycan array binding signal (z-score),Fuc(a1-2)Gal,-0.905
same,glycan array binding signal (z-score),Fuc(a1-2)Gal(b1-3)GalNAc,0.446
same,glycan array binding signal (z-score),[1],-0.434
same,glycan array binding signal (z-score),[2],-0.378
same,glycan array binding signal (z-score),[3],0.497
same,glycan array binding signal (z-score),[4],-0.524
same,glycan array binding signal (z-score),[5],-0.519
same,glycan array binding signal (z-score),Fuc(a1-2)Gal(b1-3)GlcNAc,-1.34
same,glycan array binding signal (z-score),[6],-0.481
same,glycan array binding signal (z-score),[7],1.26
same,glycan array binding signal (z-score),[8],-1.02
same,glycan array binding signal (z-score),[9],-0.031
same,glycan array binding signal (z-score),[10],0.059
same,glycan array binding signal (z-score),[11],-0.997
same,glycan array binding signal (z-score),[12],0.453
same,glycan array binding signal (z-score),[13],0.391
same,glycan array binding signal (z-score),[14],4.09
same,glycan array binding signal (z-score),[15],-1.13
same,glycan array binding signal (z-score),Fuc(a1-2)Gal(b1-4)Glc,0.065
same,glycan array binding signal (z-score),Fuc(a1-2)Gal(b1-4)Glc6S,-0.911
same,glycan array binding signal (z-score),Fuc(a1-2)Gal(b1-4)GlcNAc,0.066
same,glycan array binding signal (z-score),[16],-0.238
same,glycan array binding signal (z-score),[17],-0.531
same,glycan array binding signal (z-score),[18],0.076
same,glycan array binding signal (z-score),[19],0.225
same,glycan array binding signal (z-score),[20],1.6
same,glycan array binding signal (z-score),[21],1.22
same,glycan array binding signal (z-score),[22],1.06
same,glycan array binding signal (z-score),[23],-0.734
same,glycan array binding signal (z-score),[24],1.48

# Two entries from above in another layout:
binder | measurement | setting | value
B1 | glycan array binding signal (z-score) | [23] | -0.734
same | glycan array binding signal (z-score) | [24] | 1.48
